Results on 1 substance are retold here after paper PMC5927464 (2018).

Amino acid sequences for entries named in this document (tags omitted). A change or cut given only in a name is not applied to a line headed by its entry.
UniProt Q05921: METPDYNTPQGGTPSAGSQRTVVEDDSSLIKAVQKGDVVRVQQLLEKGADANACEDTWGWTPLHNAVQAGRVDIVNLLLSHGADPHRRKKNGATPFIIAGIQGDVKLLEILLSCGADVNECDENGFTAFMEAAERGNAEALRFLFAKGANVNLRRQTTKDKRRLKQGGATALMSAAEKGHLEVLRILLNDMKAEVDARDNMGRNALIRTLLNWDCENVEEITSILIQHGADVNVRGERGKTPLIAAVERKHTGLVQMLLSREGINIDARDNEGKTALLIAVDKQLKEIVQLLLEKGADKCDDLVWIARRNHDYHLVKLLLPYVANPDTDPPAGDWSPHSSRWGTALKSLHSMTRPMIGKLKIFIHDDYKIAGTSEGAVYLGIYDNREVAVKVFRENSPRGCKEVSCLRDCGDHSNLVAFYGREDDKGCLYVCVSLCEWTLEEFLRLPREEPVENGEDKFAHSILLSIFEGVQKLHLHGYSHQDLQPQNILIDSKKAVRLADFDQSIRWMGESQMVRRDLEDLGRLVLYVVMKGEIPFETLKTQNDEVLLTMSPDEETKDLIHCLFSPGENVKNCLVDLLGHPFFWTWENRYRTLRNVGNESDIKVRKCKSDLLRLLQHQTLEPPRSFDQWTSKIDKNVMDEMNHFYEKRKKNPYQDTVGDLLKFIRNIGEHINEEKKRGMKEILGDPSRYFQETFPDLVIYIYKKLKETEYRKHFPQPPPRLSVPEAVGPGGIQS

No constants are given. Whether binding was seen depends on the method and setting. Binding seen in cells or lysates may run through a third protein.

The assay deals with C-terminally Flag-tagged mouse RNase L K391R (dimerization-defective) (mouse) (UniProt Q05921). Nature of the assay: cross-linking; lysates of 293T cells overexpressing RNase L-Flag with or without L* (HEPES 20 mM pH 7.5, NaCl 100 mM, NP40 0.5%, EDTA 2 mM); 2-5A added (0.25 to 8 μM ATP equivalent), 10 min at 37°C; 5 mM DSS for 30 min; anti-Flag immunoblot of monomers, dimers and oligomers. A general note: In western blotting, separated proteins are transferred to a membrane and probed.

With “C-terminally Flag-tagged mouse RNase L K391R (dimerization-defective) (from UniProt Q05921 1-735) (enzyme)”, the binding entry is “no binding”.
